Reference: PubChem BioAssay AID1259254 (NCATS, 2017)

- Test: 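Finding genes that stop cells copying their DNA twice in one cycle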 (primary screen)
- Cell system: human HCT116 colorectal cancer cells
- Reagents: single siRNA against human genes
- Duration: 3 days
- Detection: 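Nuclei stained with Hoechst and imaged; cell-cycle phase assigned by DNA content; G2 share scaled per plate, non-targeting siRNA 0%, GMNN siRNA 100%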
- Reading the numbers: G2 robust z-score and G2 cells, % of GMNN control: higher = more G2 cells, more excess DNA replication; raw share of cells in G2: higher = larger share of cells with G2 DNA content
- Rule for the call: 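Active siRNAs have a G2 robust z of 5 or more median absolute deviations over the median, which in these data means about 38% or higher of GMNN control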
In all, the deposit lists about 59,000 reagents; this is a random part of them. About 1,550 of all reagents (2.6%) count as active. 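G2 share is only a proxy for re-replication; each gene was hit by three separate siRNAs, and active genes were retested.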 The raw values are shown without normalisation. The numbers tell different reagents against one gene apart. Not given: the amount of reagent.

Target gene | reagent | G2 robust z-score | G2 cells, % of GMNN control | raw share of cells in G2 (%) | outcome
C19orf12 (chromosome 19 open reading frame 12) | 1 | 1.93 | 16.6 | 9.62 | inactive
C19orf12 (chromosome 19 open reading frame 12) | 2 | 0.883 | 9.18 | 6.18 | inactive
C19orf12 (chromosome 19 open reading frame 12) | 3 | -0.0516 | 2.6 | 3.2 | inactive
PFN1 (profilin 1) | 1 | -0.562 | -0.99 | 4.55 | inactive
PFN1 (profilin 1) | 2 | 2.04 | 17.3 | 11.1 | inactive
PFN1 (profilin 1) | 3 | 1.48 | 13.4 | 8.19 | inactive
RPL22L1 (ribosomal protein L22 like 1) | 1 | 0.397 | 5.76 | 5.67 | inactive
RPL22L1 (ribosomal protein L22 like 1) | 2 | 3.26 | 25.9 | 11.6 | inactive
RPL22L1 (ribosomal protein L22 like 1) | 3 | 5.9 | 44.5 | 16.8 | active
OR13C4 (olfactory receptor family 13 subfamily C member 4) | 1 | 1.41 | 12.9 | 9.04 | inactive
OR13C4 (olfactory receptor family 13 subfamily C member 4) | 2 | -0.428 | -0.046 | 3.09 | inactive
OR13C4 (olfactory receptor family 13 subfamily C member 4) | 3 | 0.387 | 5.69 | 4.64 | inactive
GPR39 (G protein-coupled receptor 39) | 1 | -1.32 | -6.34 | 3.58 | inactive
GPR39 (G protein-coupled receptor 39) | 2 | -0.657 | -1.65 | 3.94 | inactive
GPR39 (G protein-coupled receptor 39) | 3 | -0.946 | -3.69 | 2.14 | inactive
ATP6AP1 (ATPase H+ transporting accessory protein 1) | 1 | -0.502 | -0.563 | 3.78 | inactive
ATP6AP1 (ATPase H+ transporting accessory protein 1) | 2 | 0.648 | 7.52 | 7.28 | inactive
ATP6AP1 (ATPase H+ transporting accessory protein 1) | 3 | 0.0936 | 3.63 | 6.36 | inactive
SFTPC (surfactant protein C) | 1 | 5.58 | 42.2 | 22.9 | active
SFTPC (surfactant protein C) | 2 | 1.18 | 11.3 | 8.67 | inactive
SFTPC (surfactant protein C) | 3 | 0.197 | 4.36 | 4.93 | inactive
CCDC183 (coiled-coil domain containing 183) | 1 | -0.771 | -2.46 | 3.04 | inactive
CCDC183 (coiled-coil domain containing 183) | 2 | -0.306 | 0.817 | 3.26 | inactive
CCDC183 (coiled-coil domain containing 183) | 3 | 1.53 | 13.7 | 7.28 | inactive
SMTNL1 (smoothelin like 1) | 1 | 0.707 | 7.94 | 6.46 | inactive
SMTNL1 (smoothelin like 1) | 2 | 0.253 | 4.75 | 4.76 | inactive
SMTNL1 (smoothelin like 1) | 3 | 0.913 | 9.39 | 6.19 | inactive
MTCP1 (mature T cell proliferation 1) | 1 | 1.49 | 13.4 | 10.7 | inactive
MTCP1 (mature T cell proliferation 1) | 2 | 0.215 | 4.48 | 5.99 | inactive
MTCP1 (mature T cell proliferation 1) | 3 | 3.92 | 30.6 | 14.4 | inactive
CDC26 (cell division cycle 26) | 1 | 0.509 | 6.55 | 5.28 | inactive
CDC26 (cell division cycle 26) | 2 | 3.78 | 29.5 | 14.3 | inactive
CDC26 (cell division cycle 26) | 3 | 3.19 | 25.4 | 11.8 | inactive
LOC649294 (retired record) | 1 | -0.0625 | 2.53 | 4.11 | inactive
LOC649294 (retired record) | 2 | -0.256 | 1.16 | 3.12 | inactive
LOC649294 (retired record) | 3 | -0.321 | 0.71 | 3.63 | inactive
MED28 (mediator complex subunit 28) | 1 | 0.132 | 3.89 | 6.06 | inactive
MED28 (mediator complex subunit 28) | 2 | 0.591 | 7.12 | 7.42 | inactive
MED28 (mediator complex subunit 28) | 3 | -0.12 | 2.13 | 2.96 | inactive
NOP56 (NOP56 ribonucleoprotein) | 1 | 2.28 | 19 | 14 | inactive
NOP56 (NOP56 ribonucleoprotein) | 2 | 1.78 | 15.5 | 8.85 | inactive
NOP56 (NOP56 ribonucleoprotein) | 3 | 1.91 | 16.4 | 12.8 | inactive
MBNL3 (muscleblind like splicing regulator 3) | 1 | -0.218 | 1.43 | 7.06 | inactive
MBNL3 (muscleblind like splicing regulator 3) | 2 | 1.62 | 14.4 | 9.59 | inactive
MBNL3 (muscleblind like splicing regulator 3) | 3 | -0.281 | 0.988 | 4.75 | inactive
FOXD3 (forkhead box D3) | 1 | -0.92 | -3.5 | 3.02 | inactive
FOXD3 (forkhead box D3) | 2 | -0.288 | 0.944 | 4.3 | inactive
FOXD3 (forkhead box D3) | 3 | -0.37 | 0.367 | 6.33 | inactive
ARL8A (ARF like GTPase 8A) | 1 | -0.685 | -1.85 | 3.78 | inactive
ARL8A (ARF like GTPase 8A) | 2 | -0.205 | 1.53 | 5.62 | inactive
ARL8A (ARF like GTPase 8A) | 3 | -0.59 | -1.19 | 5.12 | inactive
SYPL1 (synaptophysin like 1) | 1 | 1.99 | 17 | 11.4 | inactive
SYPL1 (synaptophysin like 1) | 2 | -0.997 | -4.05 | 3.16 | inactive
SYPL1 (synaptophysin like 1) | 3 | 0.304 | 5.11 | 5.65 | inactive
NACC2 (NACC family member 2) | 1 | -1.01 | -4.16 | 1.66 | inactive
NACC2 (NACC family member 2) | 2 | -0.102 | 2.25 | 3.95 | inactive
NACC2 (NACC family member 2) | 3 | 0.153 | 4.04 | 4.94 | inactive
CDKN2AIP (CDKN2A interacting protein) | 1 | 1.08 | 10.6 | 8.59 | inactive
CDKN2AIP (CDKN2A interacting protein) | 2 | -0.509 | -0.612 | 3.88 | inactive
CDKN2AIP (CDKN2A interacting protein) | 3 | -1.1 | -4.77 | 1.61 | inactive
STAMBP (STAM binding protein) | 1 | 0.309 | 5.14 | 7.93 | inactive
STAMBP (STAM binding protein) | 2 | -0.704 | -1.99 | 3.2 | inactive
STAMBP (STAM binding protein) | 3 | 0.0632 | 3.41 | 7.82 | inactive
NCOR2 (nuclear receptor corepressor 2) | 1 | 1.04 | 10.3 | 6.71 | inactive
NCOR2 (nuclear receptor corepressor 2) | 2 | -0.699 | -1.95 | 3.96 | inactive
NCOR2 (nuclear receptor corepressor 2) | 3 | 0.591 | 7.13 | 7.9 | inactive
ITGB1BP2 (integrin subunit beta 1 binding protein 2) | 1 | 1.83 | 15.9 | 10.4 | inactive
ITGB1BP2 (integrin subunit beta 1 binding protein 2) | 2 | -0.211 | 1.48 | 4.58 | inactive
ITGB1BP2 (integrin subunit beta 1 binding protein 2) | 3 | 0.202 | 4.39 | 4.83 | inactive

Entries listed above with an active call (2):
Target gene | reagent | G2 robust z-score | G2 cells, % of GMNN control | raw share of cells in G2 (%) | outcome
RPL22L1 (ribosomal protein L22 like 1) | 3 | 5.9 | 44.5 | 16.8 | active
SFTPC (surfactant protein C) | 1 | 5.58 | 42.2 | 22.9 | active
